# Literature values, collected in patent US8877755B2, “Dopamine-agonist combination therapy for improving sleep quality” (priority 2004, dated 2014).
# At least one compound was matched to its structure with a doubt left.
# Details: mice; behavioral depression score <40
row,Structure (SMILES),ED100 [mg/kg]
1,CNC1=Nc2ccc(Cl)cc2C(c2ccccc2)=[N+]([O-])C1 [chlordiazepoxide],100
2,CN1CCN(C2=Nc3cc(Cl)ccc3Nc3ccccc32)CC1 [clozapine],25
